Experimental data from article PMC9402538, “Rational design of a sensitivity-enhanced tracer for discovering efficient APC–Asef inhibitors” (Nature Communications, 2022).
Results are given in words; binding and its absence hold for the method and conditions named. Binding seen in cells or lysates may run through a third protein. Some binding calls cover weakened binding; strength is not graded here. For some assays here: Tags and fused reporters may be left off the sequences shown.

Protein sequences, listed by entry. Tags and fused reporters are not part of them. Lines headed by an entry give the natural chain unless they say otherwise; changes in a name come on top. Chains listed by the source or under a name are the forms on record and can include a tag or linker. Residues count along the entry.
UniProt P25054: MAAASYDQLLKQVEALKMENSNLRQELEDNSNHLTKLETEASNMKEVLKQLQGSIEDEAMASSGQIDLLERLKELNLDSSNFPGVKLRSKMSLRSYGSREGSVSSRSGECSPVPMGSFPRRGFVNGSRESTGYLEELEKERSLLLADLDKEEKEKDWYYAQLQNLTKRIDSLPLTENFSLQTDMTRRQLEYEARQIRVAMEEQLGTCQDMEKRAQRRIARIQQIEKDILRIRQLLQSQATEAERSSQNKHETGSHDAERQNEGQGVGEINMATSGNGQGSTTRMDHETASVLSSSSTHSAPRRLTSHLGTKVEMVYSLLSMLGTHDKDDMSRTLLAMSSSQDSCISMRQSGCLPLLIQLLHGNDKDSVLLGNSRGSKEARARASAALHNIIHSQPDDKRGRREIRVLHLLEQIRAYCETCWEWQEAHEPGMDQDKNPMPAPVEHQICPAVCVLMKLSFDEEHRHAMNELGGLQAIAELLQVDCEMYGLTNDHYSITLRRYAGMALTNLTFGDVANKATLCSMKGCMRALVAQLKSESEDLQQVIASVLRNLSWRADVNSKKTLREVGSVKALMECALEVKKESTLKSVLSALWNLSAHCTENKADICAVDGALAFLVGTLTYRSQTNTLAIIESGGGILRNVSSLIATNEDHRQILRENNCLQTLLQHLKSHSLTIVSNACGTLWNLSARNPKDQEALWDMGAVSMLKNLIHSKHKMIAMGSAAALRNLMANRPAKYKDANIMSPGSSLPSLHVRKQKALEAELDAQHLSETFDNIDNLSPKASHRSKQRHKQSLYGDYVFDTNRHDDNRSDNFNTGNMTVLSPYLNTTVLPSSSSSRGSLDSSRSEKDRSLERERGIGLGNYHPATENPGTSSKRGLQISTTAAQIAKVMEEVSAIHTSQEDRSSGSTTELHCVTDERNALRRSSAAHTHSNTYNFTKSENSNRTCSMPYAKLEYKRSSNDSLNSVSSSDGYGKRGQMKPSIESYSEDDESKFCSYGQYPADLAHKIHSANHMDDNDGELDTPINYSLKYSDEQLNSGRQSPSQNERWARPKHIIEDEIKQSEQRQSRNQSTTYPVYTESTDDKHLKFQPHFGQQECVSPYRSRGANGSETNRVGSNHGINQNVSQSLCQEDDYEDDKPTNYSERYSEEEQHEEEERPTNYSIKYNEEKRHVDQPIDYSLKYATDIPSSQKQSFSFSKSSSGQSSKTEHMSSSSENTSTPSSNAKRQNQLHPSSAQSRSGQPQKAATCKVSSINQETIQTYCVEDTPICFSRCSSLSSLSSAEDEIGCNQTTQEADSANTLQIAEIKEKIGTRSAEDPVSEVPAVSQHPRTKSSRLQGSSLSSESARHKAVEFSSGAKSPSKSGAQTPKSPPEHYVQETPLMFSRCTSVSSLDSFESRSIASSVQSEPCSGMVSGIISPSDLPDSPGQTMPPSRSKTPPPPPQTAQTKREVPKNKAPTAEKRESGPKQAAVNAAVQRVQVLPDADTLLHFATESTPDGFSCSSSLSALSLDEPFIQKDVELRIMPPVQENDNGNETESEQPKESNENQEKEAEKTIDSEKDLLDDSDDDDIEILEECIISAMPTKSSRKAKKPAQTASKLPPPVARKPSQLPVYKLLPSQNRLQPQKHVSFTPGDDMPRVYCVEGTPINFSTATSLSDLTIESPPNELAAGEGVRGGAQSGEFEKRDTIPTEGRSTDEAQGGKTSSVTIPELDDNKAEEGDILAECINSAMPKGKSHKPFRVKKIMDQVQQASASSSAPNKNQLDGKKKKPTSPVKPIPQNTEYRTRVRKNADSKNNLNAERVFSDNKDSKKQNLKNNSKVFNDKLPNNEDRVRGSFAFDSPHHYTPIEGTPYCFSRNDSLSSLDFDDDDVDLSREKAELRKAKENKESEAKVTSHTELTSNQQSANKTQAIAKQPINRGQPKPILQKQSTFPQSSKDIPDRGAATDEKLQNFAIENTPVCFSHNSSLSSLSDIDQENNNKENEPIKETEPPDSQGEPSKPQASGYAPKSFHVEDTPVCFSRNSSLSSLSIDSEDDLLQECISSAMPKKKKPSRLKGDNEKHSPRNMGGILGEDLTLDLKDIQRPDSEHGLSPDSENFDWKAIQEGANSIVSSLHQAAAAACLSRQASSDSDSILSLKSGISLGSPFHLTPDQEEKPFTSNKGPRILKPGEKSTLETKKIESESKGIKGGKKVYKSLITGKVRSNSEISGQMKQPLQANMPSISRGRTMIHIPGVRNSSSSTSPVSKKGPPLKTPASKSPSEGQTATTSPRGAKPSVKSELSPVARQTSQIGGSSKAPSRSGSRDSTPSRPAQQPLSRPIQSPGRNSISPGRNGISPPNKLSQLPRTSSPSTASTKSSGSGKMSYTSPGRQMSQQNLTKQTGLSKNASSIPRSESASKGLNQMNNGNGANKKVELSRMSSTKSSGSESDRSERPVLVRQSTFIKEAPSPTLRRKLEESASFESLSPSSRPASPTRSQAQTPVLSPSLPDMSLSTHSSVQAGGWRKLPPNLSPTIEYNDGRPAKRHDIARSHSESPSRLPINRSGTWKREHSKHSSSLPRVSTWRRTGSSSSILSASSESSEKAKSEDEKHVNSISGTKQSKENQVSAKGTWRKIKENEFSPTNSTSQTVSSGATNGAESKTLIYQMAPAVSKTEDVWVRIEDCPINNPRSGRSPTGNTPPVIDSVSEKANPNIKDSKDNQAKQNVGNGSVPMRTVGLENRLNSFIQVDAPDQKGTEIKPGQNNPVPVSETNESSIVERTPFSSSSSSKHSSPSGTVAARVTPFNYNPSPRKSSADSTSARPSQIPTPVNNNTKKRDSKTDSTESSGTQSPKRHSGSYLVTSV
FLAG-tagged APC (303–876): residues 303-876 of P25054

Tests used:
[1] = target: FLAG-tagged APC (303–876) (UniProt P25054); assay: co-IP; HEK293T lysate with FLAG-APC (303–876) and HA-Asef (170–632), NP-40 buffer; lysate treated with DMSO, MAI-203 (25 μM) or MAI-516 (0.2, 1, 5 μM) for 2 h at 4 °C, then anti-FLAG M2 gel; anti-HA blot
[2] = target: endogenous WT full-length APC of RKO cells (human (endogenous in RKO)) (UniProt P25054); assay: co-IP; endogenous proteins of SW480, DLD1 and RKO cells treated with MAIT-516 or MAIT-203 for 48 h; anti-APC antibody overnight and protein A/G agarose; anti-Asef blot

Row | binding [1] | binding [2] | Binder
1 | binds |  | hemagglutinin (HA)-tagged Asef (170–632) (domain or fragment, UniProt Q9NR80 170-632) SSSHHYSHPGGGGEQLAINELISDGSVVCAEALWDHVTMDDQELGFKAGDVIEVMDATNREWWWGRVADGEGWFPASFVRLRVNQDEPADDDAPLAGNSGAEDGGAEAQSSKDQMRTNVINEILSTERDYIKHLRDICEGYVRQCRKRADMFSEEQLRTIFGNIEDIYRCQKAFVKALEQRFNRERPHLSELGACFLEHQADFQIYSEYCNNHPNACVELSRLTKLSKYVYFFEACRLLQKMIDISLDGFLLTPVQKICKYPLQLAELLKYTHPQHRDFKDVEAALHAMKNVAQLINERKRRLENIDKIAQWQSSIEDWEGEDLLVRSSELIYSGELTRVTQPQAKSQQRMFFLFDHQLIYCKKDLLRRDVLYYKGRLDMDGLEVVDLEDGKDRDLHVSIKNAFRLHRGATGDSHLLCTRKPEQKQRWLKAFAREREQVQLDQETGFSITELQRKQAMLNASK
2 |  | binds | endogenous Asef (protein, UniProt Q9NR80 1-690) MPWEEPAGEKPSCSHSQKAFHMEPAQKPCFTTDMVTWALLCISAETVRGEAPSQPRGIPHRSPVSVDDLWLEKTQRKKLQKQAHVERRLHIGAVHKDGVKCWRKTIITSPESLNLPRRSHPLSQSAPTGLNHMGWPEHTPGTAMPDGALDTAVCADEVGSEEDLYDDLHSSSHHYSHPGGGGEQLAINELISDGSVVCAEALWDHVTMDDQELGFKAGDVIEVMDATNREWWWGRVADGEGWFPASFVRLRVNQDEPADDDAPLAGNSGAEDGGAEAQSSKDQMRTNVINEILSTERDYIKHLRDICEGYVRQCRKRADMFSEEQLRTIFGNIEDIYRCQKAFVKALEQRFNRERPHLSELGACFLEHQADFQIYSEYCNNHPNACVELSRLTKLSKYVYFFEACRLLQKMIDISLDGFLLTPVQKICKYPLQLAELLKYTHPQHRDFKDVEAALHAMKNVAQLINERKRRLENIDKIAQWQSSIEDWEGEDLLVRSSELIYSGELTRVTQPQAKSQQRMFFLFDHQLIYCKKDLLRRDVLYYKGRLDMDGLEVVDLEDGKDRDLHVSIKNAFRLHRGATGDSHLLCTRKPEQKQRWLKAFAREREQVQLDQETGFSITELQRKQAMLNASKQQVTGKPKAVGRPCYLTRQKHPALPSNRPQQQVLVLAEPRRKPSTFWHSISRLAPFRK
